Results on five compounds are retold here after patent publication US7846902B2, “Dipeptide-comprising composition for oral administration” (Kyowa Hakko Bio Co., Ltd., priority 2005, dated 2010).

This data set can be described thus: Taste sensory evaluation of the substances by panelists (Test Example 2). Set-up: key: x: Taste bitter; ∘: Do not taste bitter. The following applies: panelists 3 males and 3 females, blinded.

Peptide text beside a SMILES is read from it.

As to `CC[C@H](C)[C@H](NC(=O)[C@H](C)N)C(=O)O` [Alanyl-Isoleucine, alanyl-isoleucine] (H-Ala-Ile-OH), the “Sensory Awareness” value is recorded as “∘”.

`CC(C)C[C@H](NC(=O)[C@H](C)N)C(=O)O` [Alanyl-Leucine, alanyl-leucine] (H-Ala-Leu-OH): the “Sensory Awareness” value is “∘”.

Regarding `CC(C)[C@H](NC(=O)[C@H](C)N)C(=O)O` [Alanyl-Valine, alanyl-valine] (H-Ala-Val-OH), the “Sensory Awareness” value is listed as “∘”.

Turning to `CC[C@H](C)[C@H](N)C(=O)O` [Isoleucine, isoleucine, reference compound], the “Sensory Awareness” value is recorded as “x”.

As to `CC(C)[C@H](N)C(=O)O` [Valine, valine, reference compound], the “Sensory Awareness” value was “x”.
